Test results published in PubChem BioAssay AID504834 (National Center for Advancing Translational Sciences (NCATS), 2011).
Several values for one entry are separate records, joined by “and”; a condition that tells them apart may be missing. Equal entries are not always repeated. The whole screen tested about 320,000 compounds, of which about 22,000 (6.9%) were called active. The shares of active, inactive and inconclusive entries below differ from those in the screen. Calls come from the whole dose curve; as a rule, active = well fitted inhibition curve with a large enough effect; inconclusive = small, poorly fitted or top-dose-only effect, or another doubt; inactive = no such curve, though single readings can be large or run the other way. A potency beside an inconclusive call is a rough fit, not a confirmed value.

Assay: Primary qHTS for delayed death inhibitors of the malarial parasite plastid, 96 hour incubation
Settings: P. falciparum luciferase reporter growth; series mostly up to 28.7 µM
In short: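 Cell-based qHTS: luciferase-tagged P. falciparum in erythrocytes (2% hematocrit, 0.05% parasitemia final) incubated with compounds for 96 hours, 37 C, 5% CO2; luciferase detection reagent then added and luminescence measured.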
Potency is the fitted concentration of half-maximal effect.

Structure (SMILES) | Potency
Cc1ccc(-n2c(SCn3nnc4ccccc4c3=O)nnc2-c2cccnc2)c(C)c1 | inconclusive: 1.31 µM [inhibitor, single point]
Cc1cc(C)c(C(=O)COC(=O)c2cccnc2Cl)c(C)c1 | inactive
O=C(COc1ccc(Cl)cc1)NCc1nnc2c3ccccc3c(-c3ccccc3)nn12 | active: 13.1 µM
CCN(CC1COc2ccccc2O1)C(=S)NCCCN(C)C (stereo unspecified) | active: 10.4 µM
O=C(NC1=NCCS1)c1sc2ccccc2c1Cl | inactive
COc1ccccc1S(=O)(=O)Cc1ccc(C(=O)NCc2cccnc2)o1 | inconclusive: 18.5 µM [inhibitor, single point]
CNc1nc(Cl)nc(Nc2ccccc2)n1 | inconclusive: 18.5 µM [inhibitor, single point]
COc1cccc(-c2cc(C(=O)NN3CCOCC3)c3ccccc3n2)c1 | inconclusive: 18.5 µM [inhibitor, single point]
CC(C)(C)OC(=O)N/N=C/c1ccc(Br)cc1 | inactive
Cc1cc(NC(=O)c2cc(CC(C)C)on2)n(-c2ccccc2)n1 | inconclusive: 14.7 µM [inhibitor, partial curve, poor fit]
CCCCCNCC(=O)Nc1cc(C(F)(F)F)ccc1OCCOC | inconclusive: 11.7 µM [inhibitor, single point]
Cc1c(Br)cc(C(=O)N2CCN(CCO)CC2)c(C)c1C | inconclusive: 0.928 µM [inhibitor, full curve, poor fit]
Cc1cccc(NS(=O)(=O)c2cccc(C(=O)N3CCC3)c2)c1 | inactive
Cc1cc(C)n(CCC(=O)N2c3ccccc3CC2C)n1 (stereo unspecified) | inconclusive: 18.5 µM [inhibitor, single point]
COCCCNC1=C(Cl)C(=O)c2ccccc2C1=O | active: 2.33 µM
COc1ccc(NC(=O)c2cc(-c3ccccc3Cl)on2)cc1OC | inconclusive: 10.4 µM [inhibitor, single point]
O=C1N/C(=N\c2ccccn2)SC1Cc1ccc(Cl)cc1 (stereo unspecified) | inactive
CSc1nnc(-c2ccccc2)c(-c2ccccc2)n1 | inconclusive: 5.22 µM [inhibitor, partial curve, poor fit]
Cc1cc(N2Cc3ccccc3C2)ccc1C=O | inconclusive: 11.7 µM [inhibitor, partial curve, poor fit]
CC(C)c1nnc(NC(=O)CCC(=O)NCC2CCCO2)s1 (stereo unspecified) | active: 2.08 µM
O=C(NNC(=O)C1CCCN(S(=O)(=O)c2cccc(F)c2)C1)C1CC1 (stereo unspecified) | inconclusive: 0.117 µM [inhibitor, single point]
COc1ccccc1Nc1c2c(nc3ccc(N)cc13)CCCC2 | inconclusive: 11.7 µM [inhibitor, single point]
CC(C)Sc1cc(N2CCOCC2)nc(-c2ccccc2)n1 | inconclusive: 18.5 µM [inhibitor, single point]

3 structures from above, ordered by length of the SMILES, ascending:
Structure (SMILES) | Potency
CSc1nnc(-c2ccccc2)c(-c2ccccc2)n1 | inconclusive: 5.22 µM [inhibitor, partial curve, poor fit]
Cc1c(Br)cc(C(=O)N2CCN(CCO)CC2)c(C)c1C | inconclusive: 0.928 µM [inhibitor, full curve, poor fit]
Cc1cc(NC(=O)c2cc(CC(C)C)on2)n(-c2ccccc2)n1 | inconclusive: 14.7 µM [inhibitor, partial curve, poor fit]

(more compounds)

Structure (SMILES) | Potency
c1ccc2nc(N3CCNCC3)ccc2c1 | inconclusive: 19 µM [inhibitor, single point]
C[N+](C)(C)CCCCCCCCCC[N+](C)(C)C | active: 2.13 µM and active: 262 nM
OC(COCc1cccs1)CN1CCN(c2ccccc2Cl)CC1 (stereo unspecified) | inconclusive: 10.4 µM [inhibitor, single point]
C/C(CC(=O)Nc1cc(C)cc(C)c1)=N\NC(=O)c1ccccn1 | inactive
CCSc1nnc(NC(=O)c2c(-c3ccccc3Cl)noc2C)s1 | active: 5.86 µM
CC1CN(C(=O)c2cc(S(=O)(=O)N3CCN(c4ccccc4)CC3)ccc2Cl)CC(C)O1 (stereo unspecified) | inconclusive: 18.5 µM [inhibitor, single point]
Cc1cc(NC(=O)CCN2C(=O)/C(=C/c3ccccc3F)SC2=S)no1 | inconclusive: 3.29 µM [inhibitor, single point]
O=C(N/N=C/c1cccnc1)c1cc(C2CC2)nc2ccccc12 | inactive
CC(=O)c1cccc(OCc2cc(C(=O)N(C)CCc3cnn(C)c3)no2)c1 | inconclusive: 20.8 µM [inhibitor, partial curve, poor fit]
Cc1cc(C)n(CC(O)COc2ccc(C(C)(C)C)cc2)n1 (stereo unspecified) | inconclusive: 18.5 µM [inhibitor, single point]
CCC(=O)Nc1ccc(C(=O)NCCCn2ccnc2)cc1 | inconclusive: 10.4 µM [inhibitor, partial curve, poor fit]
Cn1cccc1Cc1nnc(SCC(=O)NCc2ccco2)n1-c1ccc(F)cc1 | inconclusive: 9.28 µM [inhibitor, partial curve, poor fit]
O=C(NC1C2CC3CC(C2)CC1C3)c1ccc2c(c1)OCO2 (stereo unspecified) | inconclusive: 18.5 µM [inhibitor, single point]
COc1ccc(OC)c(S(=O)(=O)N2CCCC(C(=O)N3CCCCCC3)C2)c1 (stereo unspecified) | inconclusive: 10.4 µM [inhibitor, single point]
Cc1cc(NC(=O)NCc2ccccc2)c(=O)n(Cc2ccccc2F)c1 | inconclusive: 18.5 µM [inhibitor, single point]
Cc1cc2oc(=O)cc(CN3CCN(S(=O)(=O)c4cccs4)CC3)c2cc1C | active: 7.38 µM
O=C(Nc1ccccc1)OC1CN=C(N[N+](=O)[O-])NC1 (stereo unspecified) | inconclusive: 18.5 µM [inhibitor, single point]
CCOc1ccc(NC(=NCc2ccc3c(c2)OCO3)SC2CC(=O)N(c3ccc(C(=O)O)cc3)C2=O)cc1 (stereo unspecified) | active: 9.28 µM
Cc1cc(=O)oc2cc(OCC(=O)Nc3ccc(N4CCC(C)CC4)cc3)ccc12 | inconclusive: 10.4 µM [inhibitor, partial curve]
CCN(Cc1ccccc1)C(=O)CN1C(=O)NC(CC)(c2ccc(F)cc2)C1=O (stereo unspecified) | inactive
Cc1cc(N2CCCCC2)c(F)cc1[N+](=O)[O-] | inactive
COc1ccc(CN2CC[C@H]3C=CCc4cccc(c43)C2)cc1 | inconclusive: 4.15 µM [inhibitor, single point]
CC1(C)Cc2c(ccc3ccccc23)/C(=C/C(=O)N2CCCCC2)N1 | inconclusive: 13.1 µM [inhibitor, single point]
